# PubChem BioAssay AID493014 (National Center for Advancing Translational Sciences (NCATS), 2011)
# Among all 340,000 compounds or so, about 170 (0.05%) were called active. Inconclusive results, whose numbers are uncertain, are shown with a selection of clear calls. Calls come from the whole dose curve; as a rule, active = well fitted inhibition curve with a large enough effect in the signal ratio, with a control signal flat (not every such curve was filed as active); inconclusive = small, poorly fitted or top-dose-only effect, or effect the other way, or a change in a side signal; inactive = flat fitted curve, though single readings scatter; the % refers to the signal ratio. Potencies beside an inconclusive call are fits to weak or partial responses and may not hold up.
# Test: qHTS Assay to Find Inhibitors of Chronic Active B-Cell Receptor Signaling;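 for activity change, negative = inhibition: plate controls were basal doxycycline-induced cells for no effect and cells given 10 µM MG132 for full effect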
# Settings: ABC-DLBCL IkBa-CBG/CBR reporter, luminescence ratio (green luciferase fused to IkBa over red control in TMD8 lymphoma cells), 4 h; activity change, negative = inhibition: at 46.1 µM (top of the series)
# Outline: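 Doxycycline induced both beetle luciferases in TMD8 lymphoma cells; IKK-driven degradation limits the IkappaBalpha-fused green signal, while red luminescence normalises for cell number and nonspecific effects. Compounds tested up to 46 uM, 4 hrs.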
# Potency is the fitted concentration of half-maximal effect.
SMILES,"activity change, negative = inhibition",Potency
COC(=O)C1=C(N)Oc2cc(C)n(CC3CCCO3)c(=O)c2C1c1ccccc1OC (stereo not drawn),inconclusive: -1.46%,–
O=C(Nc1cc(F)c(Br)cc1F)c1ccc(Cl)cc1,–,"inconclusive: 17.8 µM [falling, partial curve, poor fit]"
CCn1cnc2sc(C(=O)O)c(C)c2c1=O,inconclusive: 7.83%,–
COc1ccc(CNC(=O)C(CCSC)NS(=O)(=O)c2ccc3c(c2)oc(=O)n3C)cc1 (stereo not drawn),inactive: -3.06%,–
Fc1ccc(Nc2nc(SCc3cccc(Cl)c3)nc3ccccc23)cc1,–,"inconclusive: 11.2 µM [activator, partial curve]"
O=C(Nc1cccc(C(=O)O)c1)Nc1ccc2c(c1)OCO2,inconclusive: 241%,–
O=C1CC(c2ccco2)Cc2nc(N3CCc4ccccc4C3)ncc21 (stereo not drawn),inconclusive: 6.94%,–
CCCCNCc1ccc(OCc2ccc(Cl)nc2)c(OC)c1,inconclusive: 4.83%,–
c1ccc(-c2nc(-c3cccs3)[nH]c2-c2ccccc2)cc1,inconclusive: 0.493%,–
Cc1ccc2nc(Cl)c3cc(C(=O)NCCCN4CCCC4)sc3c2c1,inconclusive: -2.19%,–
CCOc1ccc(NC(=O)CN2CCN(CC(=O)Nc3ccc(F)cc3)CC2)cc1,inconclusive: -16.8%,–
CC1CCC(NC(=O)CN2C(=O)COc3ccc(S(=O)(=O)N4CCCC4)cc32)CC1 (stereo not drawn),inactive: -5.25%,–
COC(=O)c1cc(-c2ccc(OC)c(OC)c2)n[nH]1,inconclusive: -8.65%,–
CC(C)CC(=O)NC(=S)NNC(=O)c1ccc([N+](=O)[O-])cc1,inactive: 1.11%,–
Cc1ccc(-n2c(N)c(C(N)=O)sc2=S)c(C)c1,inactive: -29.5%,–
C=CCC[C@@H](Cc1ccc(F)cc1)C(=O)OCCNC(=O)[C@@H](CC=C)CC(=O)N[C@H](CO)Cc1ccccc1,inconclusive: -13%,–
O=C(c1ccc(COCC(F)(F)F)o1)N1CCCCCC1,inconclusive: 10.5%,–
CS(=O)(=O)c1ccc(C(=O)OCC(=O)NNC(=O)COc2ccc(Cl)cc2)cc1,inconclusive: -0.485%,–
Cc1ccc(OCCCCn2cnc3ccccc32)cc1,inconclusive: 0.0693%,–
CN(C)c1ccc(NC(=O)c2ccc3nc[nH]c3c2)cc1,inconclusive: -13.8%,–
CCOC(=O)N1CCC(N2C(=O)c3ccc(C(=O)Nc4ccc(OC)c(OC)c4)cc3C2=O)CC1,inactive: 1.6%,–
CSc1ccccc1NC(=O)N1CCCC(C(=O)c2ccc3c(c2)OCO3)C1 (stereo not drawn),–,"inconclusive: 11.2 µM [falling, partial curve, poor fit]"
C=CCOc1ccccc1CNc1ccc2c(c1)OCCO2,–,"inconclusive: 35.5 µM [falling, single point]"

# Quoted from the listing.
# Potency, C=CCOc1ccccc1CNc1ccc2c(c1)OCCO2 reads inconclusive: 35.5 µM [falling, single point]
# activity change, negative = inhibition, CCn1cnc2sc(C(=O)O)c(C)c2c1=O reads inconclusive: 7.83%
